The assay addresses cPD-L2 protein (canine). The assay is described as follows: ELISA-based plate assay, bound antibody as OD450. (An ELISA detects its analyte on a solid surface through an enzyme-linked reagent.)

These are yes or no findings as the source states them, for the method shown.

B1: cPD-L1 12C10E4 chimeric antibody (mouse variable domains, canine IgG2 / canine kappa constant domains) (antibody)
heavy: QVQLKQSGPGLVQPSQSLSITCTISGFSLTSFGVHWVRQSPGKGLEWLGVIWSGGSTDYNAAFTSRLSINKDNSKSQVFFKMNSLQADDTAIYYCARGGGPDWYFDVWGTGTTVTVSSASTTAPSVFPLAPSCGSTSGSTVALACLVSGYFPEPVTVSWNSGSLTSGVHTFPSVLQSSGLYSLSSMVTVPSSRWPSETFTCNVAHPASKTKVDKPVPKRENGRVPRPPDCPKCPAPEMLGGPSVFIFPPKPKDTLLIARTPEVTCVVVDLDPEDPEVQISWFVDGKQMQTAKTQPREEQFNGTYRVVSVLPIGHQDWLKGKQFTCKVNNKALPSPIERTISKARGQAHQPSVYVLPPSREELSKNTVSLTCLIKDFFPPDIDVEWQSNGQQEPESKYRTTPPQLDEDGSYFLYSKLSVDKSRWQRGDTFICAVMHEALHNHYTQKSLSHSPGK
light: DIVLTQSPASLAVSLGQRATISCRASESVEYYGTSLMQWYQQKPGQPPKLLIFAASNVKSGVPARFSGSGSGTDFSLNIHPVEEDDIAMYFCQQSGKVPHTFGGGTKLEIKRSMEIKRTDAQPAVYLFQPSPDQLHTGSASVVCLLNSFYPKDINVKWKVDGVIQDTGIQESVTEQDKDSTYSLSSTLTMSSTEYLSHELYSCEITHKSLPSTLIKSFQRSECQRVD
notes: Expressed in ExpiCHO-S cells from pTRIOZ-cIgG2-12C10E4; also called 12C chimeric antibody; mAb 12C
Consider B1, for which the binding entry is on record as “no binding”.
